Results: US12070505B2, “Targeted peptide-drug conjugates” (priority 2021, dated 2024)
“Also recorded” adds a separate entry of the source. For some of these results: At least one peptide structure holds a part that was inferred or is arguable (an end, a ring closure or a residue). Some of these results come from one statement about several compounds together.

Experiments:
MDA-MB-231 cells = assay: Cellular uptake of [R5K]W7A-Dox in presence of endocytosis inhibitors; format: cell-based; conditions: chloroquine, chlorpromazine, nystatin, genistein
H9C2 cells = assay: Fluorescence/confocal microscopy uptake in heart cells (Example 1); format: cell-based, rat; conditions: 5 μM
Procedure: Fluorescence and Confocal Microscopy. CCRF-CEM, SKOV-3, and H9C2 cells were seeded with EMEM media overnight on coverslips in six-well plates. Then the medium was removed and washed with opti-MEM. The cells were treated with Dox and the peptide-Dox conjugate (5 μM) in opti-MEM for different time intervals (3, 24, and 72 h) at 37° C. After 3 h incubation, the media containing the compound were removed, followed by washing with PBS three times. Then coverslips were placed on a drop of mounting medium on a microscope slide with the cell-attached side facing down. Fluorescence microscopy and laser scanning confocal microscopy were carried out using a Keyence Microscope System and Nikon AIR system, respectively. The cells were imaged using rhodamine and phase contrast channels.
In a separate experiment, confocal microscopy was used as follows. (i) Internalization of [R5K]W7A-Dox conjugate vs. free Dox was determined in Dox-resistant MDA-MB-231 and ME5-SA/MX2 cells as compared to the wild-type MDA-MB-231 cells. The cellular internalization was evaluated in Dox-sensitive and -resistant cells to study the effect of overexpression of the MDR efflux proteins on the Dox internalization by the peptide conjugates. […] (ii) Internalization of Dox and [R5K]W7A-Dox was determined into normal heart muscle cells. […]

SK-OV-3 cells = assay: Fluorescence microscopy uptake in SK-OV-3 (Example 1); format: cell-based, human; conditions: 5 μM, 3 h
[1] = test system: uterine sarcoma cells (MES-SA/MX2); conditions: 5 and 10 μM, 72 h

Row | SMILES | effect of endocytosis inhibitors on cellular uptake (MDA-MB-231 cells) | uptake in heart cells (microscopy, words) (H9C2 cells) | cellular localization (fluorescence microscopy, words) (SK-OV-3 cells) | cytotoxicity [1]
1 | COc1cccc2c1C(=O)c1c(O)c3c(c(O)c1C2=O)C[C@@](O)(C(=O)COC(=O)CCCC(=O)NCCC(=O)N[C@@H](Cc1c[nH]c2ccccc12)C(=O)N[C@@H](Cc1c[nH]c2ccccc12)C(=O)N[C@@H](Cc1c[nH]c2ccccc12)C(=O)N[C@@H](Cc1c[nH]c2ccccc12)C(=O)N[C@@H](Cc1c[nH]c2ccccc12)C(=O)N[C@@H](Cc1c[nH]c2ccccc12)C(=O)N[C@@H](Cc1c[nH]c2ccccc12)C(=O)NCCCC[C@@H]1NC(=O)[C@H](CCCNC(=N)N)NC(=O)[C@H](CCCNC(=N)N)NC(=O)[C@H](CCCNC(=N)N)NC(=O)[C@H](CCCNC(=N)N)NC(=O)[C@H](CCCNC(=N)N)NC1=O)C[C@@H]3O[C@H]1C[C@H](N)[C@H](O)[C@H](C)O1 [[R5K]W7A-Dox] | no change in the uptake; also recorded: did not affect the cellular uptake | minimal uptake | limited cellular localization | 
2 | N=C(N)NCCC[C@@H]1NC(=O)[C@H](CCCCNC(=O)[C@H](Cc2c[nH]c3ccccc23)NC(=O)[C@H](Cc2c[nH]c3ccccc23)NC(=O)[C@H](Cc2c[nH]c3ccccc23)NC(=O)[C@H](Cc2c[nH]c3ccccc23)NC(=O)[C@H](Cc2c[nH]c3ccccc23)NC(=O)[C@H](Cc2c[nH]c3ccccc23)NC(=O)[C@H](Cc2c[nH]c3ccccc23)NC(=O)CCN)NC(=O)[C@H](CCCNC(=N)N)NC(=O)[C@H](CCCNC(=N)N)NC(=O)[C@H](CCCNC(=N)N)NC(=O)[C@H](CCCNC(=N)N)NC1=O [[R5K]W7A] |  |  |  | 0-10%
